“Also recorded” adds a separate entry of the source.
Assay: Sensory analysis of relative sweetness intensity and taste quality of aqueous solutions compared with sucrose solutions

| SMILES | Bitter taste quality of aqueous solutions (concentrations above that equal in sweetness to 6% sucrose) | Bitter aftertaste of aqueous solutions (concentrations equivalent to less than 6% sucrose) | Relationship between concentration and sucrose equivalence (2-10% sucrose) | Taste quality of aqueous solutions (all solutions, 2-10% sucrose equivalent) |
| --- | --- | --- | --- | --- |
| CC1=CC(=O)NS(=O)(=O)O1 [AS-K, 6-Methyl-1,2,3-oxathiazin-4(3H)-one-2,2-dioxide] | undesirable bitter taste quality; also recorded: the bitter chemical taste of AS-K becomes objectionable | lack of bitter aftertaste |  |  |
| C[C@@H](NC(=O)[C@@H](N)CC(=O)O)C(=O)NC1C(C)(C)SC1(C)C [CP-54,802, 3-(L-Aspartyl-D-alaninamido)-2,2,4,4-tetramethylthietane] |  |  | more nearly linear relationship between concentration and sucrose equivalence | clean, sugar-like taste quality with a slightly slow onset of sweetness |

— US4536396A, “Synergistic sweetening compositions” (Pfizer Inc., priority 1983, dated 1985)
